Test results taken from PubChem BioAssay AID1794844 (National Center for Advancing Translational Sciences (NCATS), 2023).
The campaign covered roughly 2,800 compounds. Fewer than 10 were called active. About 7% were inconclusive and are not listed. Calls follow the shape of the dose curve; as a rule, active = well fitted inhibition curve with a large enough effect; inconclusive = small, poorly fitted or top-dose-only effect; inactive = no such curve, though single readings can be large or run the other way. This is one part of the list.

By UniProt entry, the sequences of proteins in these tests, tags left out. Where a name states a change or a piece, a line headed by the entry shows the natural chain unless it says otherwise.
UniProt C7C422: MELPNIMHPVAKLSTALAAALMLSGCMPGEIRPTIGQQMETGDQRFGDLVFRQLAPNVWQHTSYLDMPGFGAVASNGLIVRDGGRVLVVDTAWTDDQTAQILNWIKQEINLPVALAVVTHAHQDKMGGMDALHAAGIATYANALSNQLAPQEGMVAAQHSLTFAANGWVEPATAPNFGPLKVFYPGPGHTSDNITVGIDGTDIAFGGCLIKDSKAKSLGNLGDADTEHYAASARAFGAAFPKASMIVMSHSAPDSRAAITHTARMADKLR

Biological target: Metallo-beta-lactamase type 2 (Klebsiella pneumoniae) (UniProt C7C422)
Assay: qHTS to identify inhibitors of the New Delhi Metallo-beta-lactamase (NDM): Nitrocefin screen against the machine-based learning selections. Also: % of control where 0% means no effect.
Conditions: NDM-1 enzyme, nitrocefin hydrolysis, absorbance 485 nm; activity, negative = inhibition: at the top concentration
In short: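 Hydrolysis by 2 nM NDM-1 was followed by absorbance after >30 min compound preincubation in HEPES pH 7.0 buffer with 1 uM Zn2SO4. For nitrocefin (16.7 uM, 15 min, 485 nm) and meropenem (50 uM, 30 min, 300 nm), each substrate ran on separate plates.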

activity, negative = inhibition, inactive:
COc1ccc(C(=O)NCc2nnc3c(-c4nc(C5CC5)no4)cccn23)c(C)c1 -0.888%
O=C1CCC2(CCCO2)CCN1Cc1ccccc1 (stereo not given) 53.7%
COCCNC(=O)[C@@H]1CCC[C@@H](NC(=O)C2CC2)CN(C)C(=O)C1 -4.15% [at 57.5 µM]
O=C(C[C@@H]1O[C@H](CNC(=O)c2ccco2)[C@@H](O)[C@H]1O)NCc1ccc(F)cc1 22.7% [at 57.5 µM]
COc1cccc(F)c1C(=O)N1C[C@H](N)C[C@H]1C(=O)NC(C)C -5.94%
O=C(NC(c1ccccc1)c1ccccc1)c1cnc2c(c1)N(C(=O)Cc1ccc(O)cc1)CCC2 -20.4%
CS(=O)(=O)c1ccc(CNC[C@H]2Cn3ccnc3CO2)cc1 -0.233% [at 57.5 µM]
O=C(NC1CCCCC1)N1C[C@@H]2C[C@H](C1)c1c(NS(=O)(=O)c3cccc(F)c3)ccc(=O)n1C2 3.92%
COCCN1CC2(CCCN(C(=O)CCc3cccc(F)c3)C2)CCC1=O (stereo not given) 0.4%
COc1ccc(CN2CCN(c3nc4ccccc4o3)CC2CCO)cc1C (stereo not given) -0.956%
COc1ccccc1C(=O)N1CC[C@H]2COC(=O)N2c2cc(C)ccc2C1 -4.4% [at 57.5 µM]
COc1ccc(C[C@H](NC(=O)C2=C[C@@H](NC(=O)c3ccc(OC)cc3)[C@@H](O)[C@H](O)C2)C(N)=O)cc1 3.92%
CC(C)N[C@@H]1CO[C@H](CNC(=O)c2ccncc2)[C@H]1O -3.58% [at 76.7 µM]
COCc1ccc(C(=O)N2CC[C@@H](c3ccc4c(c3)OCO4)[C@H](O)C2)o1 -1.18%
CN1C(=O)C(CC(=O)N2CCCNCC2)(Cc2ccccc2)c2ccccc21 (stereo not given) -13.9%
O=C(Cc1csc(-c2ccccc2)n1)N1CCCC(c2ccn[nH]2)C1 (stereo not given) 0.175%
CC(=O)N1CCC(Oc2ccccc2-c2nc(-c3ccccc3)no2)C1 (stereo not given) -7.27%
O=C(N[C@H]1[C@H](O)[C@H](O)C[C@@H]1c1cccnc1)c1ccccn1 -2.52% [at 57.5 µM]
O=C(O)c1cc(-c2cccc(CO)c2)cc(S(=O)(=O)N2CCOCC2)c1 -1.05%
C[C@H]1[C@@H]2[C@@H](O)C([C@H](C)C(=O)NCc3cccs3)CC[C@@]2(C)CC[C@@H]1NC(=O)c1cncnc1 (stereo not given in full) 1.41%
O=C(O)c1ccc(CC2CCN(C(=O)c3cccc(-n4cccn4)c3)C2)cc1 (stereo not given) -1.12%
CCc1c(C)nn(CC(=O)N2CCC3(CCNC(=O)CC3)CC2)c1C -4.25%
O=C([C@@H]1C[C@H](Oc2ccccc2)CN1C(=O)c1cccs1)N1CCOCC1 3.58%
COCc1cc(C[C@@H]2CC[C@H](O)[C@@H](CNS(=O)(=O)c3ccccc3)O2)no1 -0.232% [at 57.5 µM]
Cc1cc(C(=O)N[C@@H]2C[C@H](Cn3cc(CN4CCS(=O)(=O)CC4)nn3)[C@@H](O)[C@H]2O)nn1C -17.9%
CCCn1ccc2oc(C)c(C(=O)NCc3ccc(OC)cc3)c2c1=O 0.463%
Cc1nn(C)c(C)c1CCC(=O)N[C@@H]1CN(c2ncccn2)C[C@H]1CO 4.86%
COc1ccc(CN2CCCC(CO)(CC3CC3)C2)c(F)c1 (stereo not given) 81.8%
CC(C)CN1C(=O)COC[C@@H]1[C@H](O)c1ccc(NC(=O)C2CCCC2)cc1 1.07% [at 57.5 µM]
Cc1ncsc1CCC(=O)N[C@@H]1CCOC[C@H]1OCC(=O)O -7.97%
CCn1cc(-c2ccc(OC)cc2)cc1C(=O)N1CCCCCC1 -1.02%
C=CCC1(C(=O)O)CCCN(Cc2cnc(NCc3ccccc3)nc2)C1 (stereo not given) -4.29%
CC1=C[C@@H](CNc2ccccn2)[C@H](C(C)C)C[C@H]1Cc1nnc(-c2ccc(C)cc2)o1 0.458% [at 57.5 µM]
CCn1nccc1C(=O)NCc1cc(C)cc2c(C)c(-c3ccccc3)[nH]c12 -15.5%
Cn1ccnc1C(=O)N1CC(c2noc(C3CCCN3CC3CC3)n2)C1 (stereo not given) 1.03%
Cc1cccc(Nc2nc(N)nc(CN3CCOCC(O)C3)n2)c1 (stereo not given) -15.9%
C[C@@H](c1ccccc1)N1C(=O)[C@@H]2CN(C(=O)c3ccc(N(C)C)cc3)CCN2C1=O 2.81% [at 57.5 µM]
CC(=O)N1CCN([C@H]2[C@@H]3OC[C@@H](O3)[C@@H](NCc3ccco3)[C@@H]2O)CC1 -1.7% [at 57.5 µM]
O=C(NCc1cccc(F)c1)c1cnc2c(c1)N(C(=O)Cc1ccc(O)cc1)CCC2 -5.72% [at 57.5 µM]
Cc1ccnc(N2CCC(c3nnc(-c4ccc(F)cc4)o3)CC2)n1 -0.0308%
O=c1cc(-c2ccccn2)oc2c(NCc3ccc(F)cc3)nccc12 -5.96% [at 57.5 µM]
O=C(c1ccccc1F)N1CCCC(c2nn[nH]n2)C1 (stereo not given) -3.56%
Cc1nc([C@@H]2CN(S(=O)(=O)c3ccc4c(c3)CCC4)C[C@H]2C(N)=O)n[nH]1 1.21%
CN(C)C[C@@H]1CN(Cc2ccccn2)C[C@H]1NS(=O)(=O)c1cccc(C#N)c1 -3.85%
CC1=C[C@@H](CNCCN(C)C)[C@H](C(C)C)C[C@H]1Cc1nnc(-c2ccc(C)cc2)o1 -1.67% [at 57.5 µM]
O=c1cc(-c2ccccn2)oc2c(-c3cccc(CO)c3)nccc12 -1.46% [at 57.5 µM]
Cn1ccc2c(C(=O)NCc3cccnc3)nc(-c3cccc(O)c3)cc21 -1.31% [at 57.5 µM]
C[C@@H]1CN(c2cc(C3CC3)ncn2)C[C@@]1(O)C1CCC1 4.23%
O=C(Nc1ccc(F)cc1)Nc1cccc(-c2ccc(N3CCOCC3)nn2)c1 -0.193%
Cc1ccc(-c2noc([C@@H]3Cc4nc[nH]c4CN3C(=O)CCC(=O)O)n2)cc1 6.38% [at 57.5 µM]
COc1ccc(Nc2cc3c(cn2)CN(CCc2ccccc2)CCN3)cc1 5.26% [at 57.5 µM]
Cc1cc(C)c(CNC(=O)c2nc(-c3cccc(O)c3)cc3[nH]ccc23)c(=O)[nH]1 1.32% [at 57.5 µM]
O=C(NC1CCCc2nc(N3CCC(CO)CC3)ncc21)c1ccccn1 (stereo not given) -6.76%
COc1ccccc1-c1cc(C(=O)NC(C)C)c2cnn(C)c2n1 1.61% [at 57.5 µM]
CCN(CC)C(=O)[C@@H]1CCC[C@@H](NC(=O)Nc2c(C)noc2C)CN(C)C(=O)C1 0.167% [at 57.5 µM]
CC1=C[C@@H](CN(C)CCN(C)C)[C@H](C(C)C)C[C@H]1Cc1nnc(-c2ccccc2)o1 0.36% [at 57.5 µM]
Cc1nn2cc(CCNCC3(O)CNCCOC3)nc2s1 (stereo not given) 2.59%
Cc1ccccc1-c1[nH]nc2ncc(-c3cccc(O)c3)nc12 3.39% [at 57.5 µM]
Cc1cccc(C)c1-c1nc(C(=O)NCCc2ccc(Cl)cc2)n2ccccc12 2.12%
Cc1cnc(C)c(N2CCN(C(=O)CCCc3c[nH]c4ccccc34)CC2)n1 3.51%
COc1ccc(NC(=O)N2CC[C@@H](CC(=O)O)[C@@H](CC3=NCCc4cc(OC)c(OC)cc43)C2)cc1 -1.53%
NC1(Cc2cc(C(=O)N3CCCCC3)on2)COC1 0.216% [at 76.7 µM]
COc1ccc2c(c1)CCN=C2C[C@H]1CN(C(=O)c2ccc(F)cc2)CC[C@H]1CC(=O)O -0.339% [at 57.5 µM]
CC(C)NC(=O)NC[C@H]1OC[C@@H](NCc2cccc(C#N)c2)[C@@H]1O -0.0432% [at 57.5 µM]
C[C@@H]1CN(C(=O)c2cccc(C#N)c2)C[C@]1(C)O -0.759%
C[C@H]1[C@@H]2[C@@H](O)C([C@H](C)C(=O)NCc3cccs3)CC[C@@]2(C)CC[C@@H]1NC(=O)COc1ccccc1 (stereo not given in full) 0.373%
COCCN1C[C@H]2CN(Cc3ccc(C(F)(F)F)cc3)CCN2C1=O -6.33% [at 57.5 µM]
CCc1nncn1C1CCN(S(=O)(=O)c2ccc(C)cc2C)CC1 0.956%
CCOCC(=O)N1CCC(N2CC3CC(C2)[C@H]2CCCC(=O)N2C3)CC1 (stereo not given in full) -4.41%
CNC(=O)C(C)(C)N1CCC[C@H]1C(=O)NCc1ccc(OC)cc1 -2.5% [at 57.5 µM]
COc1ccc2c(c1)C(NC(=O)c1cn(CCN)nn1)CC(C)(C)O2 (stereo not given) 1.86%
CC(=O)NC1(C)CCN(Cc2cccc(-c3cccc4ncccc34)c2)C1 (stereo not given) -5.86% [at 57.5 µM]
CC(C)c1nc2c(c(-c3ccc(O)cc3)n1)CN(C(=O)C1CC1)CC2 2.73% [at 57.5 µM]
CC(C)Cc1cn(CC2CCCN(C(=O)c3ccc4c(c3)CCO4)C2)nn1 (stereo not given) -2.73%
CCCNC(=O)N(C1CCOCC1)C1CCN(C(=O)c2cccc(C(F)(F)F)c2)CC1 -5.81%
CN1C[C@H](NCc2cccc(Cl)c2)CCC[C@@H](C(=O)NC2CC2)CC1=O 1.24% [at 57.5 µM]
CC(=O)c1ccc(NC(=O)N2C[C@@H]3C[C@H](C2)c2ccc(NC(=O)CN(C)C)c(=O)n2C3)cc1 -4.12%
O=C1NC(=NC2CCCC2)C2(CCN([S+](=O)([O-])c3cccc(C(F)(F)F)c3)C2)N1c1cccnc1 (stereo not given) 1.35%
O=C(NCC1CC1)c1ccnc(-c2nnc3ccc(Nc4ccccc4)nn23)c1 -4.55% [at 57.5 µM]
Cc1ccccc1-c1cccc(CCOc2cnc3c(ccn3CC(=O)O)c2)c1 -16.4% [at 57.5 µM]
Cn1cc(CN(Cc2c(C(=O)N3CCCC3)nc3sccn23)C2CC2)cn1 10.2%
O=C1CCN(Cc2ccccc2OCC(O)CN2CCCCC2)CCN1 (stereo not given) 1.94%
COCc1noc([C@@H]2CN(C(=O)c3cccc(Cl)c3)C[C@H]2CO)n1 -2.5%
Cc1ccsc1-c1[nH]nc2ncc(-c3cccc(CO)c3)nc12 13.3% [at 57.5 µM]
COc1ccc(-n2nc(C)c([C@H]3C=C[C@@H](OC(=O)Nc4cccc(F)c4)C3)c2C)cc1 -0.333% [at 57.5 µM]
Cc1ncc2c(c1CNC(=O)c1ccc3cccnc3c1O)CCNC2 1.05%
Cc1ccccc1Nc1n[nH]c(C(O)c2cccc(C(F)(F)F)c2)n1 (stereo not given) 3.43% [at 57.5 µM]
CN(C)c1ccc(C(=O)N2CCN3C(=O)c4cc(-c5ccc6c(c5)OCO6)ccc4NC(=O)[C@H]3C2)cc1 -10.3%
OCc1ccc(-c2cc(-c3ccncc3)c3cncn3c2)cc1 31.6% [at 57.5 µM]
Cc1ccc2nc(CO[C@H]3CN(Cc4ccc(Cl)cc4)C[C@H]3F)[nH]c2c1 2.27% [at 57.5 µM]
CC1=C[C@@H](CNC(=O)C2CC2)[C@H](C(C)C)C[C@H]1Cc1nc2ccncc2[nH]1 2.09% [at 57.5 µM]
COc1cccc(-c2cnc3[nH]cc(CC(=O)NCc4cccnc4)c3c2)c1 3.98% [at 57.5 µM]
CC1=C[C@@H](CNS(C)(=O)=O)[C@H](C(C)C)C[C@H]1CC(=O)NC1CCCC1 0.347% [at 57.5 µM]
O=C(NCC1CCOCC1)c1c[nH]c2ccccc12 -11.1%
CC(=O)c1ccc(NC(=O)N[C@H]2CO[C@H]3[C@@H]2OC[C@@H]3n2nnnc2Oc2cccc(N(C)C)c2)cc1 -1.96%

Structures listed so far containing a CF3 group (4):
activity, negative = inhibition, inactive:
COCCN1C[C@H]2CN(Cc3ccc(C(F)(F)F)cc3)CCN2C1=O -6.33% [at 57.5 µM]
CCCNC(=O)N(C1CCOCC1)C1CCN(C(=O)c2cccc(C(F)(F)F)c2)CC1 -5.81%
O=C1NC(=NC2CCCC2)C2(CCN([S+](=O)([O-])c3cccc(C(F)(F)F)c3)C2)N1c1cccnc1 (stereo not given) 1.35%
Cc1ccccc1Nc1n[nH]c(C(O)c2cccc(C(F)(F)F)c2)n1 (stereo not given) 3.43% [at 57.5 µM]

Entries listed so far with a cyano group:
activity, negative = inhibition, inactive:
CN(C)C[C@@H]1CN(Cc2ccccn2)C[C@H]1NS(=O)(=O)c1cccc(C#N)c1 -3.85%
CC(C)NC(=O)NC[C@H]1OC[C@@H](NCc2cccc(C#N)c2)[C@@H]1O -0.0432% [at 57.5 µM]
C[C@@H]1CN(C(=O)c2cccc(C#N)c2)C[C@]1(C)O -0.759%
